Laboratory results: PubChem BioAssay AID1259254 (NCATS, 2017)

Test: 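Gene knock-downs that lead to re-replication, shown by excess G2 DNA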 (primary screen)
Cell system: human HCT116 colorectal cancer cells
Reagent: single siRNA against human genes
Duration: 3 days
Read-out: 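Nuclei stained with Hoechst and imaged; cell-cycle phase assigned by DNA content; G2 share scaled per plate, non-targeting siRNA 0%, GMNN siRNA 100%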
Direction: G2 robust z-score and G2 cells, % of GMNN control: higher = more G2 cells, more excess DNA replication
Rule for the call: 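Active siRNAs have a G2 robust z of 5 or more median absolute deviations over the median, which in these data means about 38% or higher of GMNN control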
The deposit covers about 59,000 reagents; below is a random part of them. Over the whole deposit, about 1,550 (2.6%) got an active call. 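G2 share is only a proxy for re-replication; each gene was hit by three separate siRNAs, and active genes were retested.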 Reagents against one gene are numbered here. Further read-outs or replicates are left out here. No sequences are given here. Not stated in the record: the amount of reagent.

HOXB13 #1
- G2 robust z-score: -0.601
- G2 cells, % of GMNN control: -1.26
- activity call: inactive

HOXB13 #2
- G2 robust z-score: -1.1
- G2 cells, % of GMNN control: -4.77
- activity call: inactive

HOXB13 #3
- G2 robust z-score: -0.635
- G2 cells, % of GMNN control: -1.5
- activity call: inactive

SCG5 #1
- G2 robust z-score: -0.891
- G2 cells, % of GMNN control: -3.3
- activity call: inactive

SCG5 #2
- G2 robust z-score: 0.755
- G2 cells, % of GMNN control: 8.28
- activity call: inactive

SCG5 #3
- G2 robust z-score: 1.07
- G2 cells, % of GMNN control: 10.5
- activity call: inactive

SFSWAP #1
- G2 robust z-score: -1.04
- G2 cells, % of GMNN control: -4.37
- activity call: inactive

SFSWAP #2
- G2 robust z-score: -0.5
- G2 cells, % of GMNN control: -0.55
- activity call: inactive

SFSWAP #3
- G2 robust z-score: 1.73
- G2 cells, % of GMNN control: 15.1
- activity call: inactive

Continued, starting with the last 2 of the part before.
SFSWAP #2
- G2 robust z-score: -0.5
- G2 cells, % of GMNN control: -0.55
- activity call: inactive

SFSWAP #3
- G2 robust z-score: 1.73
- G2 cells, % of GMNN control: 15.1
- activity call: inactive

NF1 #1
- G2 robust z-score: -0.963
- G2 cells, % of GMNN control: -3.81
- activity call: inactive

NF1 #2
- G2 robust z-score: -0.773
- G2 cells, % of GMNN control: -2.47
- activity call: inactive

NF1 #3
- G2 robust z-score: -0.227
- G2 cells, % of GMNN control: 1.37
- activity call: inactive

NF1 #4
- G2 robust z-score: 1.27
- G2 cells, % of GMNN control: 11.9
- activity call: inactive

NF1 #5
- G2 robust z-score: -0.484
- G2 cells, % of GMNN control: -0.435
- activity call: inactive

NF1 #6
- G2 robust z-score: 0.789
- G2 cells, % of GMNN control: 8.52
- activity call: inactive

LINC02145 #1
- G2 robust z-score: 0.644
- G2 cells, % of GMNN control: 7.5
- activity call: inactive

LINC02145 #2
- G2 robust z-score: -1.21
- G2 cells, % of GMNN control: -5.52
- activity call: inactive

LINC02145 #3
- G2 robust z-score: -1.37
- G2 cells, % of GMNN control: -6.64
- activity call: inactive
